Test results as given in the supplement of paper PMC10849652.
This is one part of the list. Residues, ends and D or L forms follow the SMILES beside them. *: point of attachment. Cbz = O=C(OCc1ccccc1)*

Sequences of proteins named here, by UniProt entry; tags and fusion partners are left off. A change or cut given only in a name is not applied to a line headed by its entry.
UniProt P50747: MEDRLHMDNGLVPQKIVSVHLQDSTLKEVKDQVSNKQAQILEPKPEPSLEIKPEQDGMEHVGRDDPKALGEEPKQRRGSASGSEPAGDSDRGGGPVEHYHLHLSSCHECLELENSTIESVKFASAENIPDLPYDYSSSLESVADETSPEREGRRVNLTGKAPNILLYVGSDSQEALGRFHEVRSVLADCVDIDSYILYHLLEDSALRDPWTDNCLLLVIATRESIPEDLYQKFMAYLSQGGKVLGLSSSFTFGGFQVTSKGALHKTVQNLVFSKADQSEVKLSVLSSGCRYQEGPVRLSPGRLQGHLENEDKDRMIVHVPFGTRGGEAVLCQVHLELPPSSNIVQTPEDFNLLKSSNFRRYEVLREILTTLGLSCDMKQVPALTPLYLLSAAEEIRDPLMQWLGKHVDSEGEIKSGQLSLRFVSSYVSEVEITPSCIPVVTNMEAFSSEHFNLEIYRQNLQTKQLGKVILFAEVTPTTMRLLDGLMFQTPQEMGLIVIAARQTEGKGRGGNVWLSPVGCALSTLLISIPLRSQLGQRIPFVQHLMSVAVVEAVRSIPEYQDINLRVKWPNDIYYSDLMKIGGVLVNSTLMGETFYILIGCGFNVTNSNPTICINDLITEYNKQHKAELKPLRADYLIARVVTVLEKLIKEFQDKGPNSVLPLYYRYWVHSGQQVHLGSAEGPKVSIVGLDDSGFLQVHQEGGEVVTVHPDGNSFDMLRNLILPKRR
UniProt Q6YN16: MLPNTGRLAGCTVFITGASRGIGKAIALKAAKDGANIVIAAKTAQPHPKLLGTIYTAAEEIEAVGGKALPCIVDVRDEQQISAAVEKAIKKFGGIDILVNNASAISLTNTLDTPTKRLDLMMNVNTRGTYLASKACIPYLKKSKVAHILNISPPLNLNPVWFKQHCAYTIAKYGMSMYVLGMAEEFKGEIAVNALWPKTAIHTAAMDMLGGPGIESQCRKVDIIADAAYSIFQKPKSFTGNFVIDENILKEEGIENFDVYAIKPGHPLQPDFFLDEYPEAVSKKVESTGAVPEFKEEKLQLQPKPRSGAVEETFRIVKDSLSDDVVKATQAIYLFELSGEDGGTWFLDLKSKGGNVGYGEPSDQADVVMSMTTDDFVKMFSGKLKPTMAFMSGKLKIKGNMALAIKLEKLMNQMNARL
UniProt P41252: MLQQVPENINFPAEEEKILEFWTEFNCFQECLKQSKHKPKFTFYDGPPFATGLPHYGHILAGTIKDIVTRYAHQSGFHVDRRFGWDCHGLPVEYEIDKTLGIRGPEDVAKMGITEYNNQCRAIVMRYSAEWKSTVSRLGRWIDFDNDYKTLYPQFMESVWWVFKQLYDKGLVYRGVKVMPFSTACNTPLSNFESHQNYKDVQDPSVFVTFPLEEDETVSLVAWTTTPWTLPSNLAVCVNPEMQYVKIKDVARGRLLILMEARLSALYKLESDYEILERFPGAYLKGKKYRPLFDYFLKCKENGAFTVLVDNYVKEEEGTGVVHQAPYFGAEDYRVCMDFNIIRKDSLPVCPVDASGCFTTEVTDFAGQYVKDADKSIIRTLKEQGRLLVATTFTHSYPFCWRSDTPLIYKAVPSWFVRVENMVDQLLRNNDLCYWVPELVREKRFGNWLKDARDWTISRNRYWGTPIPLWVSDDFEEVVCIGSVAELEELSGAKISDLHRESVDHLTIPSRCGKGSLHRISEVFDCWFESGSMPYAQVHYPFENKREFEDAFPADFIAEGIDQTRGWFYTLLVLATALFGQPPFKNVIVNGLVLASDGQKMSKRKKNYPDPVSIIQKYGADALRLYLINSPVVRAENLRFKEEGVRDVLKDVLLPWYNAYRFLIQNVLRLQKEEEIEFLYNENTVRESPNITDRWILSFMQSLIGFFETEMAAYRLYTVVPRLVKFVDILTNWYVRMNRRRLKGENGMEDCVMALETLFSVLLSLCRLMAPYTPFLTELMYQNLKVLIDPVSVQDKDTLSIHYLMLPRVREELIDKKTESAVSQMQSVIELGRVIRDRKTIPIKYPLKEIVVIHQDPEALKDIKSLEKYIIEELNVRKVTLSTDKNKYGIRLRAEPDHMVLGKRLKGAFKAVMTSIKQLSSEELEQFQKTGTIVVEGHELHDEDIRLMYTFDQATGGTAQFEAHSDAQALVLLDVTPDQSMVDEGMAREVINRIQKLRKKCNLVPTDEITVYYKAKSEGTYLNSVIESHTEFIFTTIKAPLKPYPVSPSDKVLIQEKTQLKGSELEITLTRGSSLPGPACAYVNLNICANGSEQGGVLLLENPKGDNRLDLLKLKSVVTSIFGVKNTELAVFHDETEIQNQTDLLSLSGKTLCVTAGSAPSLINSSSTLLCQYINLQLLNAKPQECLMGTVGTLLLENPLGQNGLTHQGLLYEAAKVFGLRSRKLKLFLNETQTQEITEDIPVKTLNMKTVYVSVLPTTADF
UniProt Q9Y547: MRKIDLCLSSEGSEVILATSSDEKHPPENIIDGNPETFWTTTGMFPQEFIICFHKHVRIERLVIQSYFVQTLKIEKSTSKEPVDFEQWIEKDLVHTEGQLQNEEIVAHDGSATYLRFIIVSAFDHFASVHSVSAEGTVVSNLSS
UniProt P13598: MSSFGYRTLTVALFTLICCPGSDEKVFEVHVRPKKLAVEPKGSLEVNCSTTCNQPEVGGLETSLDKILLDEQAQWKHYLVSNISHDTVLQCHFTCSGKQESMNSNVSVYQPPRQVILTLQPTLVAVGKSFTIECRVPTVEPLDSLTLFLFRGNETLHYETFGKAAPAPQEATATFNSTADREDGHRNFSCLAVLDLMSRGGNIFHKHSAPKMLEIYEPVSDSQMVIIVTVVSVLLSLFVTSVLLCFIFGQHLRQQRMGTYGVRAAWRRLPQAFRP
UniProt Q15651: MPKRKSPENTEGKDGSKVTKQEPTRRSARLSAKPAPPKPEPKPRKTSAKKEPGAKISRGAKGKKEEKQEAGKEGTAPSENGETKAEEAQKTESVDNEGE
UniProt P34931, whole entry, looked up: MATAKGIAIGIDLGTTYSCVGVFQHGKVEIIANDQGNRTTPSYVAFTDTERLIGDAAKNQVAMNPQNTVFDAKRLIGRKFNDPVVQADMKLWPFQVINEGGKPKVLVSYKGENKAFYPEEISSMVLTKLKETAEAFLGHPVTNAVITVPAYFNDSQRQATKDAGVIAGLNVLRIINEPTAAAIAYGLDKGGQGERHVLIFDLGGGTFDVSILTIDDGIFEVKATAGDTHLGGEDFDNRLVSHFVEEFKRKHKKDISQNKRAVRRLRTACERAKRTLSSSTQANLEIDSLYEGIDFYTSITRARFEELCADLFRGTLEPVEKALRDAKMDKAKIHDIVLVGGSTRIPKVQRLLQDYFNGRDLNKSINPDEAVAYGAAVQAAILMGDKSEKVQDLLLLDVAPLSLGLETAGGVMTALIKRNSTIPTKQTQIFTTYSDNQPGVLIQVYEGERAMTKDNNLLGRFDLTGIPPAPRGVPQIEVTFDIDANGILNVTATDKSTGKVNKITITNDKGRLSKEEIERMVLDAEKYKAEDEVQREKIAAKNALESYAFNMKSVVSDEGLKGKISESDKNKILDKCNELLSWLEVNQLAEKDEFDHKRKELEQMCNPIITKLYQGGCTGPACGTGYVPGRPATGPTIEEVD
UniProt P04792, whole entry, looked up: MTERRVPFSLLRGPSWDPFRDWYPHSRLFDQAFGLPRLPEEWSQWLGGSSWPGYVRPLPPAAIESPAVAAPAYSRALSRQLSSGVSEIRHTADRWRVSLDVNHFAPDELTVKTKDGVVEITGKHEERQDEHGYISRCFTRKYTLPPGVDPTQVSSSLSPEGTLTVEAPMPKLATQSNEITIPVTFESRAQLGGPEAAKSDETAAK
UniProt Q99714: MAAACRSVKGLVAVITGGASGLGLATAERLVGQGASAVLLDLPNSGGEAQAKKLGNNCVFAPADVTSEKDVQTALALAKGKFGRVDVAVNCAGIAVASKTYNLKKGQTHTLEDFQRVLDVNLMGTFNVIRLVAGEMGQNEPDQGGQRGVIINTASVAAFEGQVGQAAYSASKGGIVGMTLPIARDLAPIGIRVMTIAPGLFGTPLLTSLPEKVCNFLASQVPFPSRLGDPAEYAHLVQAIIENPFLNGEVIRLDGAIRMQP
UniProt P38646: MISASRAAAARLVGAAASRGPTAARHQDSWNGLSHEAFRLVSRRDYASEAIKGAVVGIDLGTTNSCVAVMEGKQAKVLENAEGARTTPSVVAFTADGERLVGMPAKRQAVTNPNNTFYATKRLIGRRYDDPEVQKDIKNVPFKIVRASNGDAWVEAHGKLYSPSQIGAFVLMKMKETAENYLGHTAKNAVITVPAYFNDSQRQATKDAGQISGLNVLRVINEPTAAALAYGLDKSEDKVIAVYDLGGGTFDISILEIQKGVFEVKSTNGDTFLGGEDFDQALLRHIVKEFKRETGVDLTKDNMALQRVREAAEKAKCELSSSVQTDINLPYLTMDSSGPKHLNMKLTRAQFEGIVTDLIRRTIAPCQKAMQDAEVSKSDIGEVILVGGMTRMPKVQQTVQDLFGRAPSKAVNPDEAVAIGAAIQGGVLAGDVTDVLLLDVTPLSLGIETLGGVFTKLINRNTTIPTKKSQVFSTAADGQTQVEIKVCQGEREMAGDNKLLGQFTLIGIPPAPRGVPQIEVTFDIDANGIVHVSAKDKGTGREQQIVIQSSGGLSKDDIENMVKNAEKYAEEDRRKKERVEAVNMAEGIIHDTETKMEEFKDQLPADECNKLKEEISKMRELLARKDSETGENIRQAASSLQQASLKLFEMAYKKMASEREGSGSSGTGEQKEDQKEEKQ
UniProt P35914: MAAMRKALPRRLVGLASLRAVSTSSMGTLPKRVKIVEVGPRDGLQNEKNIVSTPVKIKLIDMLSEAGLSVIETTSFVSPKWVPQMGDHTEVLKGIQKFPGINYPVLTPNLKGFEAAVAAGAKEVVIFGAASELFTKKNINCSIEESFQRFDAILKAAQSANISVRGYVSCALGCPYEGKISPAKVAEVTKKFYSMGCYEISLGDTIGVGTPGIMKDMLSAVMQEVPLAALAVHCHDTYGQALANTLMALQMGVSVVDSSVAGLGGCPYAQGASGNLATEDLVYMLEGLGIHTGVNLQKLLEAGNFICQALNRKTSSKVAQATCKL
UniProt Q2TB90: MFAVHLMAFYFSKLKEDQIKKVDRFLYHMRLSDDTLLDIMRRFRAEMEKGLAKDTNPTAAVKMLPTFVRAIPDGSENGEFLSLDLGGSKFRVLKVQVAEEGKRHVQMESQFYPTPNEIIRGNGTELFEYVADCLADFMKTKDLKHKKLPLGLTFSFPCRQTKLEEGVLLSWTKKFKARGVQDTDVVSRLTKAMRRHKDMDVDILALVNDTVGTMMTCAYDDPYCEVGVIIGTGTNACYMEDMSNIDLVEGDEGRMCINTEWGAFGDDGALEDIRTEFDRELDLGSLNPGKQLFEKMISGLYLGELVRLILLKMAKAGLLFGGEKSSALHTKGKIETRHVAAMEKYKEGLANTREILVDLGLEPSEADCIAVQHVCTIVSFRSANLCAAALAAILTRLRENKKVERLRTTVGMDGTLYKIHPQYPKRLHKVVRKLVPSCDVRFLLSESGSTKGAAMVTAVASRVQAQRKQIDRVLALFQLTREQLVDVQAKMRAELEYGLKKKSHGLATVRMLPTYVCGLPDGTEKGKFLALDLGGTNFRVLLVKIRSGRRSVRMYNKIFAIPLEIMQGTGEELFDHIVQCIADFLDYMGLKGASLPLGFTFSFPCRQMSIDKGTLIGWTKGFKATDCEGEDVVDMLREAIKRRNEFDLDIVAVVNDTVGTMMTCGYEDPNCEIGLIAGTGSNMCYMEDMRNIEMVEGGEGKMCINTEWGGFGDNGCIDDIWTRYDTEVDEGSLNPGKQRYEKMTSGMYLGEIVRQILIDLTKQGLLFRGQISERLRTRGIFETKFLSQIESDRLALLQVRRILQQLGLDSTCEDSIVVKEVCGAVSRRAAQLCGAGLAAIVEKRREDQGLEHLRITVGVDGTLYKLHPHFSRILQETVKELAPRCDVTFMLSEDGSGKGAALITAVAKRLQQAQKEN
UniProt P82970: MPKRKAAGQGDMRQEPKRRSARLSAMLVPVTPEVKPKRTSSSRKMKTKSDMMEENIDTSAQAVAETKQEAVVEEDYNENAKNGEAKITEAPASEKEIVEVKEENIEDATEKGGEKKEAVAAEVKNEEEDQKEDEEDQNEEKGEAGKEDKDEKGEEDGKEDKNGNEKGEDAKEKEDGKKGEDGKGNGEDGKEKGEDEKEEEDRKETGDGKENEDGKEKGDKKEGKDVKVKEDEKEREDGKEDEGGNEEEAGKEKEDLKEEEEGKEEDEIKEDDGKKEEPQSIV

Legend:
Assay in all cases: log2 fold change, soluble protein after heating vs DMSO (PISA); higher = thermal stabilisation; K562 cells, 10 uM, 30 min; active = over 0.2 and 3.5 SD of the protein, either way, in both replicates (recomputed)
IRAK-1-4 Inhibitor I = compound: C1COCCN1CCN2C3=CC=CC=C3N=C2NC(=O)C4=CC(=CC=C4)[N+](=O)[O-] [IRAK-1-4 Inhibitor I]
In short: (§1)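 K562 cells at 2×10^6 cells/mL were treated with 10 μM compound for 30 min. Aliquots were heated for 3 min across 48°C-58°C, pooled, and extracted in PBS with 0.5% NP-40 at 4°C; soluble protein was the supernatant after 21,000xg for 90 min. Soluble protein was quantified by TMTpro 16plex LC-MS/MS with channel sums equalised, and reported as log2 fold change in thermal stability against DMSO controls, with values from duplicates.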

ibrutinib = compound: C=CC(=O)N1CCC[C@@H](n2nc(-c3ccc(Oc4ccccc4)cc3)c3c(N)ncnc32)C1 [ibrutinib]
In short: as §1

[1] = compound: CC(=O)c1cnc2ccc(-c3cc(Cl)c(O)c(Cl)c3)nc2c1N[C@H]1CC[C@H](CN(C)C)CC1
In short: as §1

ralimetinib = compound: CC(C)(C)Cn1c(N)nc2ccc(-c3[nH]c(C(C)(C)C)nc3-c3ccc(F)cc3)nc21 [ralimetinib]
In short: as §1

[2] = compound: CC(C)(O)CC(=O)NCCn1ccc2ncnc(Nc3ccc(Oc4cccc(C(F)(F)F)c4)c(Cl)c3)c21
In short: as §1

[3] = compound: CC(C)C1=C2N=C(C=C(N2N=C1)NCC3=CC=CC=C3)NCCCCCCN
In short: as §1

[4] = compound: CC(C)C[C@@H](C=O)NC(=O)[C@H](CC(C)C)NC(=O)[C@H](CC(C)C)NC(=O)OCc1ccccc1
In short: as §1

pinometostat = compound: CC(C)N(C[C@H]1O[C@@H](n2cnc3c(N)ncnc32)[C@H](O)[C@@H]1O)[C@H]1C[C@@H](CCc2nc3cc(C(C)(C)C)ccc3[nH]2)C1 [pinometostat]
In short: as §1

[5] = compound: CC1=C(C(CC(=O)N1)C2=CC=C(C=C2)C(F)(F)F)C(=O)NC3=C(C=C4C(=C3)C=NN4)F
In short: as §1

[6] = compound: CC1=C(C2=C(C=C1)C(=O)C3=CC=CC=C3N2CCCN)C
In short: as §1

[7] = compound: CC1=C(C=C(C=C1)NC(=O)C2=CC(=CC=C2)C(C)(C)C#N)NC3=CC4=C(C=C3)N=CN(C4=O)C
In short: as §1

[8] = compound: CC1=C(C=C(C=C1)NC(=O)C2=CC(=CC=C2)N(C)C)NC(=O)C3=CC=C(C=C3)O
In short: as §1

[9] = compound: CC1=CC=C(C=C1)SC2=C3C=C(SC3=CN=C2)C(=O)N
In short: as §1

[10] = compound: CC1=NC(=CC=C1)C2=C(N=C(N2)C(C)(C)C)C3=CC4=NC=CN=C4C=C3
In short: as §1

Nexturastat A = compound: CCCCN(Cc1ccc(C(=O)NO)cc1)C(=O)Nc1ccccc1 [Nexturastat A]
In short: as §1

vemurafenib = compound: CCCS(=O)(=O)Nc1ccc(F)c(C(=O)c2c[nH]c3ncc(-c4ccc(Cl)cc4)cc23)c1F [vemurafenib]
In short: as §1

[11] = compound: CCCS(=O)(=O)Nc1ccc(F)c(C(=O)c2c[nH]c3ncc(Cl)cc23)c1F
In short: as §1

[12] = compound: CCCc1cc(C)[nH]c(=O)c1CNC(=O)c1cc(-c2ccnc(N3CCN(C)CC3)c2)cc2c1cnn2C(C)C
In short: as §1

givinostat = compound: CCN(CC)Cc1ccc2cc(COC(=O)Nc3ccc(C(=O)NO)cc3)ccc2c1 [givinostat]
In short: as §1

barasertib = compound: CCN(CCCOc1ccc2c(Nc3cc(CC(=O)Nc4cccc(F)c4)[nH]n3)ncnc2c1)CCOP(=O)(O)O [barasertib]
In short: as §1

Measured: log2 fold change

HLCS (UniProt P50747)
inactive: IRAK-1-4 Inhibitor I 0.024 | ibrutinib 0.014 | [1] -0.003 | ralimetinib 0.013 | [2] -0.016 | [3] -0.054 | [4] -0.044 | pinometostat -0.003 | [5] -0.003 | [6] 0.006 | [7] 0.006 | [8] 0.014 | [9] 0.025 | [10] 0.009 | Nexturastat A -0.051 | vemurafenib -0.006 | [11] 0.067 | [12] 0.035 | givinostat -0.019 | barasertib 0.058

HSDL2 (UniProt Q6YN16)
inactive: IRAK-1-4 Inhibitor I 0.021 | ibrutinib 0.008 | [1] -0.087 | ralimetinib -0.055 | [2] -0.209 | [3] -0.026 | [4] -0.028 | pinometostat -0.089 | [5] -0.034 | [6] 0.095 | [7] 0.023 | [8] -0.104 | [9] 0.072 | [10] 0.041 | Nexturastat A -0.044 | vemurafenib 0.02 | [11] 0.104 | [12] 0.032 | givinostat 0.013 | barasertib 0.048

IARS (UniProt P41252)
inactive: IRAK-1-4 Inhibitor I -0.126 | ibrutinib -0.02 | [1] 0.126 | ralimetinib 0.236 | [2] 0.047 | [3] -0.267 | [4] 0.16 | pinometostat 0.504 | [5] 0.004 | [6] -0.012 | [7] 0.047 | [8] 0.037 | [9] 0.001 | [10] -0.049 | Nexturastat A 0.382 | vemurafenib -0.03 | [11] 0.028 | [12] 0.115 | givinostat 0.134 | barasertib 0.015

HSPB11 (UniProt Q9Y547)
inactive: IRAK-1-4 Inhibitor I -0.017 | ibrutinib -0.028 | [1] -0.07 | ralimetinib 0.085 | [2] -0.066 | [3] -0.072 | [4] -0.065 | pinometostat -0.027 | [5] -0.058 | [6] -0.029 | [7] -0.003 | [8] -0.064 | [9] 0.087 | [10] 0.03 | Nexturastat A 0.004 | vemurafenib 0.016 | [11] 0.044 | [12] 0.071 | givinostat 0.101 | barasertib 0.058

ICAM2 (UniProt P13598)
inactive: IRAK-1-4 Inhibitor I 0.04 | ibrutinib 0.063 | [1] -0.014 | ralimetinib 0.058 | [2] -0.041 | [3] 0.087 | [4] -0.051 | pinometostat -0.054 | [5] -0.056 | [6] 0.007 | [7] 0.015 | [8] 0.015 | [9] 0.047 | [10] 0.053 | Nexturastat A -0.123 | vemurafenib -0.005 | [11] 0.018 | [12] 0.031 | givinostat -0.036 | barasertib -0.023

HMGN3 (UniProt Q15651)
inactive: IRAK-1-4 Inhibitor I -0.116 | ibrutinib 0.083 | [1] -0.017 | ralimetinib -0.08 | [2] 0.074 | [3] 0.145 | [4] 0.08 | pinometostat 0.02 | [5] 0.482 | [6] 0.263 | [7] 0.011 | [8] -0.048 | [9] -0.016 | [10] 0.11 | Nexturastat A 0.162 | vemurafenib 0.031 | [11] 0.085 | [12] -0.029 | givinostat -0.014 | barasertib -0.209

HSPA1L (UniProt P34931)
inactive: IRAK-1-4 Inhibitor I 0.018 | ibrutinib 0.091 | [1] 0.092 | ralimetinib -0.032 | [2] -0.064 | [3] 0.073 | [4] -0.081 | pinometostat -0.022 | [5] -0.086 | [6] 0.011 | [7] -0.043 | [8] -0.001 | [9] -0.019 | [10] -0.009 | Nexturastat A 0.046 | vemurafenib -0.018 | [11] -0.079 | [12] 0.053 | givinostat -0.062 | barasertib -0.013

HSPB1 (UniProt P04792)
inactive: IRAK-1-4 Inhibitor I -0.05 | ibrutinib -0.02 | [1] 0.114 | ralimetinib 0.089 | [2] 0.044 | [3] -0.04 | [4] 0.035 | pinometostat 0.063 | [5] -0.058 | [6] 0.031 | [7] -0.04 | [8] 0 | [9] -0.001 | [10] -0.03 | Nexturastat A 0.063 | vemurafenib 0.031 | [11] 0.014 | [12] 0.039 | givinostat 0.031 | barasertib 0.028

HUWE1 (UniProt Q7Z6Z7)
inactive: IRAK-1-4 Inhibitor I -0.02 | ibrutinib -0.014 | [1] 0.032 | ralimetinib 0.014 | [2] -0.078 | [3] -0.052 | [4] 0.029 | pinometostat 0.022 | [5] 0.004 | [6] -0.012 | [7] 0.024 | [8] -0.028 | [9] -0.009 | [10] -0.011 | Nexturastat A -0.032 | vemurafenib 0.017 | [11] 0.049 | [12] 0.006 | givinostat 0.006 | barasertib 0.012

HSD17B10 (UniProt Q99714)
inactive: IRAK-1-4 Inhibitor I -0.025 | ibrutinib -0.019 | [1] -0.02 | ralimetinib -0.029 | [2] -0.038 | [3] 0.07 | [4] -0.086 | pinometostat -0.105 | [5] -0.034 | [6] 0.058 | [7] 0.098 | [8] -0.028 | [9] 0.055 | [10] 0.099 | Nexturastat A -0.138 | vemurafenib 0.051 | [11] 0.074 | [12] -0.018 | givinostat -0.017 | barasertib 0.003

HSPA9 (UniProt P38646)
inactive: IRAK-1-4 Inhibitor I 0.065 | ibrutinib -0.001 | [1] 0.006 | ralimetinib -0.027 | [2] 0.004 | [3] -0.002 | [4] -0.008 | pinometostat -0.018 | [5] 0.039 | [6] -0.018 | [7] -0.05 | [8] 0.017 | [9] -0.001 | [10] 0.003 | Nexturastat A -0.072 | vemurafenib -0.046 | [11] -0.023 | [12] 0.048 | givinostat 0 | barasertib 0.004

HMGCL (UniProt P35914)
inactive: IRAK-1-4 Inhibitor I 0.07 | ibrutinib 0.021 | [1] 0.063 | ralimetinib -0.024 | [2] -0.087 | [3] 0.025 | [4] -0.056 | pinometostat -0.031 | [5] 0.015 | [6] 0.015 | [7] 0.009 | [8] 0.02 | [9] 0 | [10] 0.047 | Nexturastat A -0.005 | vemurafenib 0.019 | [11] -0.031 | [12] -0.067 | givinostat -0.037 | barasertib 0.022

Reprinted from above (2 entries):
HSD17B10 (UniProt Q99714)
inactive: IRAK-1-4 Inhibitor I -0.025 | ibrutinib -0.019 | [1] -0.02 | ralimetinib -0.029 | [2] -0.038 | [3] 0.07 | [4] -0.086 | pinometostat -0.105 | [5] -0.034 | [6] 0.058 | [7] 0.098 | [8] -0.028 | [9] 0.055 | [10] 0.099 | Nexturastat A -0.138 | vemurafenib 0.051 | [11] 0.074 | [12] -0.018 | givinostat -0.017 | barasertib 0.003

HSPA9 (UniProt P38646)
inactive: IRAK-1-4 Inhibitor I 0.065 | ibrutinib -0.001 | [1] 0.006 | ralimetinib -0.027 | [2] 0.004 | [3] -0.002 | [4] -0.008 | pinometostat -0.018 | [5] 0.039 | [6] -0.018 | [7] -0.05 | [8] 0.017 | [9] -0.001 | [10] 0.003 | Nexturastat A -0.072 | vemurafenib -0.046 | [11] -0.023 | [12] 0.048 | givinostat 0 | barasertib 0.004

Carrying on:

HSP90AA1 isoform 2 (UniProt P07900)
inactive: IRAK-1-4 Inhibitor I 0.049 | ibrutinib -0.05 | [1] 0.034 | ralimetinib 0.034 | [2] -0.049 | [3] -0.041 | [4] -0.006 | pinometostat -0.039 | [5] -0.036 | [6] -0.029 | [7] 0.03 | [8] -0.011 | [9] 0.008 | [10] 0.02 | Nexturastat A -0.038 | vemurafenib 0.049 | [11] 0.025 | [12] 0.006 | givinostat -0.017 | barasertib 0.01

HKDC1 (UniProt Q2TB90)
inactive: IRAK-1-4 Inhibitor I -0.022 | ibrutinib -0.002 | [1] -0.125 | ralimetinib -0.152 | [2] 0.036 | [3] 0.027 | [4] -0.148 | pinometostat -0.027 | [5] 0.038 | [6] 0.013 | [7] -0.004 | [8] -0.049 | [9] 0.007 | [10] 0.058 | Nexturastat A -0.196 | vemurafenib -0.026 | [11] -0.024 | [12] -0.02 | givinostat -0.014 | barasertib 0.048

HMGN5 (UniProt P82970)
inactive: IRAK-1-4 Inhibitor I 0.001 | ibrutinib 0.02 | [1] 0.105 | ralimetinib -0.026 | [2] 0.011 | [3] 0.07 | [4] -0.006 | pinometostat -0.083 | [5] 0.017 | [6] -0.031 | [7] -0.01 | [8] 0.037 | [9] -0.025 | [10] 0.016 | Nexturastat A -0.055 | vemurafenib -0.028 | [11] 0.037 | [12] -0.047 | givinostat -0.045 | barasertib -0.028

HMCN1 (UniProt Q96RW7)
inactive: IRAK-1-4 Inhibitor I 0.097 | ibrutinib 0.244 | [1] 0.103 | ralimetinib 0.006 | [2] 0.326 | [3] 0.146 | [4] -0.08 | pinometostat -0.259 | [5] 0.047 | [6] -0.237 | [7] -0.015 | [8] 0.543 | [9] 0.293 | [10] 0.03 | Nexturastat A -0.06 | vemurafenib 0.205 | [11] -0.138 | [12] -0.175 | givinostat -0.143 | barasertib -0.082
